Measurements taken from patent US20190374627A1, “TARGET PEPTIDES FOR CANCER THERAPY AND DIAGNOSTICS” (priority 2016, published 2019).

Legend:
Set-up in all cases: key: The presence of phosphopeptides in previously analyzed samples including leukemia, colorectal cancer, melanoma, ovarian cancer, breast cancer, and esophageal cancer is indicated by ✓
breast cancer = test: Presence of the phosphopeptide in previously analyzed breast cancer samples
melanoma = test: Presence of the phosphopeptide in previously analyzed melanoma samples
colorectal cancer = test: Presence of the phosphopeptide in previously analyzed colorectal cancer samples
leukemia = test: Presence of the phosphopeptide in previously analyzed leukemia samples
esophageal cancer = test: Presence of the phosphopeptide in previously analyzed esophageal cancer samples
ovarian cancer = test: Presence of the phosphopeptide in previously analyzed ovarian cancer samples

| Substance | Breast (breast cancer) | Melanoma (melanoma) | Colorectal (colorectal cancer) | Leukemia (leukemia) | Esophageal (esophageal cancer) | Ovarian (ovarian cancer) |
| --- | --- | --- | --- | --- | --- | --- |
| 79 (APRKGSFSAL; (6)...(6) The amino acid at this position is optionally phosphorylated; listed as Homo sapiens) [compound 79] | ✓ | ✓ | ✓ | – | – | – |
| 90 (GPRPGSPSAL; (6)...(6) The amino acid at this position is optionally phosphorylated; listed as Homo sapiens) [compound 90] | ✓ | ✓ | – | – | – | – |
| 104 (KPRSPPRALVL; (4)...(4) The amino acid at this position is optionally phosphorylated; listed as Homo sapiens) [compound 104] | ✓ | ✓ | – | – | – | – |
| 112 (LPIFSRLSI; (8)...(8) The amino acid at this position is optionally phosphorylated; listed as Homo sapiens) [compound 112] | ✓ | ✓ | ✓ | – | – | – |
| 122 (RLLSPQQPAL; (4)...(4) The amino acid at this position is optionally phosphorylated; listed as Homo sapiens) [compound 122] | ✓ | – | – | – | – | – |
| 150 (RPNSPSPTAL; (4)...(4) The amino acid at this position is optionally phosphorylated; listed as Homo sapiens) [compound 150] | ✓ | ✓ | – | ✓ | – | – |
| 172 (RPRSLSSPTVTL; (6)...(6) The amino acid at this position is optionally phosphorylated; listed as Homo sapiens) [compound 172] | ✓ | ✓ | – | – | – | – |
| 189 (RPSSLPDL; (4)...(4) The amino acid at this position is optionally phosphorylated; listed as Homo sapiens) [compound 189] | ✓ | ✓ | – | – | – | – |
| 194 (RPVSPGKDI; (4)...(4) The amino acid at this position is optionally phosphorylated; listed as Homo sapiens) [compound 194] | ✓ | ✓ | – | ✓ | – | – |
| 199 (RPWSPAVSA; (4)...(4) The amino acid at this position is optionally phosphorylated; listed as Homo sapiens) [compound 199] | ✓ | – | ✓ | ✓ | – | – |
| 204 (SPASPKISL; (4)...(4) The amino acid at this position is optionally phosphorylated; listed as Homo sapiens) [compound 204] | ✓ | ✓ | – | ✓ | – | – |
| 209 (SPRERSPAL; (6)...(6) The amino acid at this position is optionally phosphorylated; listed as Homo sapiens) [compound 209] | ✓ | ✓ | ✓ | – | – | – |
| 211 (SPRSPGRSL; (4) The amino acid at this position is optionally phosphorylated; listed as Homo sapiens) [compound 211] | ✓ | ✓ | – | ✓ | – | – |
| 221 (VPTSPKSSL; (4)...(4) The amino acid at this position is optionally phosphorylated; listed as Homo sapiens) [compound 221] | ✓ | – | – | – | – | – |
| 428 (RTHSLLLLL; (4)...(4) The amino acid at this position is optionally phosphorylated; listed as Homo sapiens) [compound 428] | – | – | ✓ | ✓ | ✓ | ✓ |
